Reference: PubChem BioAssay AID1671195 (Yale University, 2021)
This is an unselected part of about 22,000 reagents. Of all reagents, about 1,510 (6.9%) are marked active. 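Active includes knockdowns raising or lowering LDL uptake; positive z-scores mean more uptake, negative mean less.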 A number with no mark means an inactive call. Reagents against one gene are numbered here. Reagent sequences are not shown.

Aim: 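Knockdowns that increase or decrease uptake of fluorescent LDL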 (primary screen)
System: human Huh7 hepatoma cells
Reagents: siRNA pool against human genes, 18 nM
Timing: about 2 to 2.5 days of knockdown, then 8 h LDL uptake
Challenge: DiI-labelled LDL at 30 µg/ml for 8 h, in lipoprotein-deficient serum medium
Measurement: 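Per-cell DiI-LDL intensity by automated imaging; well means scaled to the plate median and given as a robust z-score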
Direction: robust z-score: higher = more LDL uptake after knockdown
Active means: 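a gene counts as active if at least two replicate z-scores exceed ±2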

no.	target	reagent	robust z-score, replicate 1	robust z-score, replicate 2	robust z-score, replicate 3
1	ZNF493	1	-0.124	1.39	1.35
2	ZNF493	2	-0.0506	-0.667	-0.122
3	KPNB1	1	0.673	1.51	1.54
4	UNC5B	1	1.11	0.825	1.12
5	GALR2	1	-0.575	0.407	-0.437
6	RHOT1	1	-0.355	-0.428	0.261
7	PLSCR1	1	-1.05	-0.00921	-0.473
8	TSEN54	1	-0.454	-0.538	-0.4
9	DCPH1	1	0.0628	-0.0227	-0.627
10	CD163	1	-2.17 (active)	-2.27	-2.1
11	TMEM45B	1	1.07	0.287	-0.388
12	CDC37	1	1.57	-0.148	0.566
13	RAB11FIP5	1	1.16	1.76	0.495
14	ANKRD17	1	-0.368	-0.257	-0.514
15	UBE2G1	1	0.633	-0.576	0.289
16	TBPL1	1	1.07	2.01	1.53
17	SNX17	1	-1.78	-1.4	0.294
18	POMT2	1	0.545	0.324	0.704
19	BRCA2	1	0.532	0.0716	0.328
20	ZNF271P	1	-0.323	-0.159	-0.91
21	OR52K2	1	0.514	0.298	-0.124
22	PXT1	1	-0.601	-0.467	-0.133
23	EIF5	1	-0.807	-0.512	-0.608
24	ARIH1	1	-0.923	-1.75	-2.33
25	LOC391405 (retired record)	1	0.706	0.815	0.722
26	SULT6B1	1	-0.795	-0.68	0.191
27	ZNF781	1	1.91 (active)	1.75	2.54
28	ARX	1	0.543 (active)	-2.18	-2.2
29	RABIF	1	-0.532	0.596	0.73
30	CD1E	1	-0.897	-0.893	-1.17
31	TSC22D3	1	0.405	0.986	0.421
32	ORC3	1	4.65 (active)	3.04	1.38
33	LOC400888 (retired record)	1	-1	-1.03	-0.938
34	TTC23	1	-0.0322	0.431	0.0533
35	LOC730007	1	0.116	0.647	0.516
36	PGS1	1	0.273	0.615	-0.109

Entries above marked active, once more:
target	reagent	robust z-score, replicate 1	robust z-score, replicate 2	robust z-score, replicate 3
CD163	1	-2.17 (active)	-2.27	-2.1
ZNF781	1	1.91 (active)	1.75	2.54
ARX	1	0.543 (active)	-2.18	-2.2
ORC3	1	4.65 (active)	3.04	1.38

Additional reagents follow:
no.	target	reagent	robust z-score, replicate 1	robust z-score, replicate 2	robust z-score, replicate 3
37	HMGN2P46	1	-1.05	-0.903	-1.22
38	C1orf141	1	-0.882	-1.01	-0.919
39	CD33	1	0.587	0.359	0.68
40	NCSTN	1	-0.0635	1.27	-0.362
41	LOC390564 (retired record)	1	1.97 (active)	2.13	2.46
42	LOC442329 (retired record)	1	-2.56 (active)	-1.99	-1.83
43	ATL2	1	0.0696	0.018	0.794
44	PSORS1C1	1	1.16	0.983	1.8
45	FAM149A	1	-0.366	0.405	-1.03
46	PNPT1	1	0.00827	0.0729	0.737
47	HSF2	1	0.169	0.24	1.02
48	TTC31	1	-0.752	-1.24	-0.353
49	PNCK	1	-0.112	0.387	-1.37
50	PCDHB9	1	-1.67	-1.37	-1.47
51	SLCO1A2	1	-2.05 (active)	-2.13	-2.25
52	G0S2	1	-1.23	0.749	0.325
53	OR10J3	1	0.471	-0.078	0.673
54	XPOT	1	-0.758	0.56	0.277
55	LOC388142 (retired record)	1	1.34	1.49	0.622
56	LOC150739 (retired record)	1	1.63	0.735	0.338
57	DMGDH	1	1.38	1.16	1.94
58	MAMLD1	1	-1.26	0.00951	-0.42
59	KLHL11	1	-0.48	-1.12	-0.554
60	GPR63	1	-2.15	-0.665	0.25
61	ZNF839P4	1	0.748	-0.239	0.304
62	ZNF839P4	2	0.109	-0.031	0.21
63	FUNDC1	1	-0.265	-0.597	0.741
64	AREG	1	-1.54	-1.07	-1.37
65	NUSAP1	1	2.27 (active)	3.42	0.0234
66	ECT2L	1	-0.437	-0.198	0.347
67	MCM4	1	-0.254	0.403	0.137
68	ARSB	1	-1.58	-2.14	-1.45
